In patent publication US12378320B2, “Methods for treating pancreatitis” (Cold Spring Harbor Laboratory, priority 2018, dated 2025):

B1: Q00623 (protein, UniProt Q00623 1-264, looked up)
chain: MKAVVLAVALVFLTGSQAWHVWQQDEPQSQWDKVKDFANVYVDAVKDSGRDYVSQFESSSLGQQLNLNLLENWDTLGSTVSQLQERLGPLTRDFWDNLEKETDWVRQEMNKDLEEVKQKVQPYLDEFQKKWKEDVELYRQKVAPLGAELQESARQKLQELQGRLSPVAEEFRDRMRTHVDSLRTQLAPHSEQMRESLAQRLAELKSNPTLNEYHTRAKTHLKTLGEKARPALEDLRHSLMPMLETLKTQVQSVIDKASETLTAQ
modifications: full-length
B2: Q9DBJ1 (protein, UniProt Q9DBJ1 1-254, looked up)
chain: MAAYKLVLIRHGESAWNLENRFSGWYDADLSPAGHEEAKRGGQALRDAGYEFDICFTSVQKRAIRTLWTVLDAIDQMWLPVVRTWRLNERHYGGLTGLNKAETAAKHGEAQVKIWRRSYDVPPPPMEPDHPFYSNISKDRRYADLTEDQLPSCESLKDTIARALPFWNEEIVPQIKEGKRVLIAAHGNSLRGIVKHLEGLSEEAIMELNLPTGIPIVYELDKNLKPIKPMQFLGDEETVRKAMEAVAAQGKVKK
modifications: full-length
B3: P09411 (protein, UniProt P09411 1-417, looked up)
chain: MSLSNKLTLDKLDVKGKRVVMRVDFNVPMKNNQITNNQRIKAAVPSIKFCLDNGAKSVVLMSHLGRPDGVPMPDKYSLEPVAAELKSLLGKDVLFLKDCVGPEVENACANPAAGTVILLENLRFHVEEEGKGKDASGNKVKAEPAKIDAFRASLSKLGDVYVNDAFGTAHRAHSSMVGVNLPQKAGGFLMKKELNYFAKALESPERPFLAILGGAKVADKIQLINNMLDKVNEMIIGGGMAFTFLKVLNNMEIGTSLYDEEGAKIVKDLMSKAEKNGVKITLPVDFVTADKFDENAKTGQATVASGIPAGWMGLDCGTESSKKYAEAVGRAKQIVWNGPVGVFEWEAFARGTKSLMDEVVKATSRGCITIIGGGDTATCCAKWNTEDKVSHVSTGGGASLELLEGKVLPGVDALSNV
modifications: full-length
B4: P55937 (protein, UniProt P55937 1-1487, looked up)
chain: MDGASAKQDGLWESKSSSDVSSCPEASLETVGSLARLPDQQDTAQDASVEVNRGFKEEGSPDRSSQVAICQNGQIPDLQLSLDPTTSPVGPDASTGVDGFHDNLRNSQGTSAEGSVRKEALQSLRLSLPMQETQLCSTASSLPLEKEEQVRLQARKRLEEQLMQYRVKRHRERSSQPATKMKLFSTLDPELMLNPENLPRASTVAVTKEYSFLRTSVPRGPKVGSLGLLAHSKEKKNSKSSKIRSLADYRTEDPSDSGGLGSTADAVGSSLKQSRSSTSVVSEVSPSSETDNRVESASMTGDSVSEADGNESDSSSHSSLSARGACGVLGNVGMPGTAYMVDGQEISAEALGQFPSIKDVLQAAAAQHQDQNQEANGEVRSRRDSICSSVSMESSLAEPQDELLQILKDKRRLEGQVEALSLEASQALQEKAELQAQLAALSTRLQAQVEHSHSSQQKQDSLSSEVDTLKQSCWDLGRAMTDLQSMLEAKNASLASSNNDLQVAEEQYQRLMAKVEDMQRNILSKDNTVHDLRQQMTALQSQLQQVQLERTTLTSKLQASQAEITSLQHARQWYQQQLTLAQEARVRLQGEMAHIQVGQMTQAGLLEHLKLENVSLSHQLTETQHRSIKEKERIAVQLQSIEADMLDQEAAFVQIREAKTMVEEDLQRRLEEFEGEREQLQKVADAAASLEQQLEQVKLTLFQRDQQLAALQQEHLDVIKQLTSTQEALQAKGQSLDDLHTRYDELQARLEELQREADSREDAIHFLQNEKIVLEVALQSAKSDKEELDRGARRLEEDTEETSGLLEQLRQDLAVKSNQVEHLQQETATLRKQMQKVKEQFVQQKVMVEAYRRDATSKDQLINELKATKKRLDSEMKELRQELIKLQGEKKTVEVEHSRLQKDMSLVHQQMAELEGHLQSVQKERDEMEIHLQSLKFDKEQMIALTEANETLKKQIEELQQEAKKAITEQKQKMKRLGSDLTSAQKEMKTKHKAYENAVSILSRRLQEALASKEATDAELNQLRAQSTGGSSDPVLHEKIRALEVELQNVGQSKILLEKELQEVITMTSQELEESREKVLELEDELQESRGFRRKIKRLEESNKKLALELEHERGKLTGLGQSNAALREHNSILETALAKREADLVQLNLQVQAVLQRKEEEDRQMKQLVQALQVSLEKEKMEVNSLKEQMAAARIEAGHNRRHFKAATLELSEVKKELQAKEHLVQTLQAEVDELQIQDGKHSQEIAQFQTELAEARTQLQLLQKKLDEQMSQQPTGSQEMEDLKWELDQKEREIQSLKQQLDLTEQQGKKELEGTQQTLQTIKSELEMVQEDLSETQKDKFMLQAKVSELKNNMKTLLQQNQQLKLDLRRGAAKKKEPKGESNSSSPATPIKIPDCPVPASLLEELLRPPPAVSKEPLKNLNNCLQQLKQEMDSLQRQMEEHTITVHESLSSWAQVEAAPAEHAHPRGDTKLHNQNSVPRDGLGQ
modifications: full-length
B5: P10493 (protein, UniProt P10493 1-1245, looked up)
chain: MLDASGCSWAMWTWALLQLLLLVGPGGCLNRQELFPFGPGQGDLELEAGDDVVSPSLELIGELSFYDRTDITSVYVTTNGIIAMSEPPATEYHPGTFPPSFGSVAPFLADLDTTDGLGNVYYREDLSPFIIQMAAEYVQRGFPEVSFQPTSVVVVTWESVAPYGGPSSSPAEEGKRNTFQAVLASSNSSSYAIFLYPEDGLQFFTTFSKKDESQVPAVVGFSKGLVGFLWKSNGAYNIFANDRESIENLAKSSNAGHQGVWVFEIGSPATAKGVVSADVNLDLDDDGADYEDEDYDLVTSHLGLEDVATPSPSHSPRRGYPDPHNVPRILSPGYEATERPRGVPTERTRSFQLPAERFPQHHPQVIDVDEVEETGVVFSYNTGSQQTCANNRHQCSVHAECRDYATGFCCRCVANYTGNGRQCVAEGSPQRVNGKVKGRIFVGSSQVPVVFENTDLHSYVVMNHGRSYTAISTIPETVGYSLLPLAPIGGIIGWMFAVEQDGFKNGFSITGGEFTRQAEVTFLGHPGKLVLKQQFSGIDEHGHLTISTELEGRVPQIPYGASVHIEPYTELYHYSSSVITSSSTREYTVMEPDQDGAAPSHTHIYQWRQTITFQECAHDDARPALPSTQQLSVDSVFVLYNKEERILRYALSNSIGPVRDGSPDALQNPCYIGTHGCDSNAACRPGPGTQFTCECSIGFRGDGQTCYDIDECSEQPSRCGNHAVCNNLPGTFRCECVEGYHFSDRGTCVAAEDQRPINYCETGLHNCDIPQRAQCIYMGGSSYTCSCLPGFSGDGRACRDVDECQHSRCHPDAFCYNTPGSFTCQCKPGYQGDGFRCMPGEVSKTRCQLEREHILGAAGGADAQRPTLQGMFVPQCDEYGHYVPTQCHHSTGYCWCVDRDGRELEGSRTPPGMRPPCLSTVAPPIHQGPVVPTAVIPLPPGTHLLFAQTGKIERLPLERNTMKKTEAKAFLHIPAKVIIGLAFDCVDKVVYWTDISEPSIGRASLHGGEPTTIIRQDLGSPEGIALDHLGRTIFWTDSQLDRIEVAKMDGTQRRVLFDTGLVNPRGIVTDPVRGNLYWTDWNRDNPKIETSHMDGTNRRILAQDNLGLPNGLTFDAFSSQLCWVDAGTHRAECLNPAQPGRRKVLEGLQYPFAVTSYGKNLYYTDWKTNSVIAMDLAISKEMDTFHPHKQTRLYGITIALSQCPQGHNYCSVNNGGCTHLCLPTPGSRTCRCPDNTLGVDCIERK
modifications: full-length
B6: Q61753 (protein, UniProt Q61753 1-533, looked up)
chain: MAFANLRKVLISDSLDPCCRKILQDGGLQVVEKQNLSKEELIAELQDCEGLIVRSATKVTADVINAAEKLQVVGRAGTGVDNVDLEAATRKGILVMNTPNGNSLSAAELTCGMIMCLARQIPQATASMKDGKWDRKKFMGTELNGKTLGILGLGRIGREVATRMQSFGMKTVGYDPIISPEVAASFGVQQLPLEEIWPLCDFITVHTPLLPSTTGLLNDSTFAQCKKGVRVVNCARGGIVDEGALLRALQSGQCAGAALDVFTEEPPRDRALVDHENVISCPHLGASTKEAQSRCGEEIAVQFVDMVKGKSLTGVVNAQALTSAFSPHTKPWIGLAEAMGTLMHAWAGSPKGTIQVVTQGTSLKNAGTCLSPAVIVGLLREASKQADVNLVNAKLLVKEAGLNVTTSHNPGVPGEQGSGECLLTVALAGAPYQAVGLVQGTTPMLQMLNGAVFRPEVPLRRGQPLLVFRAQPSDPGMLPTMIGLLAEAGVQLLSYQTSMVSDGEPWHVMGLSSLLPSLETWKQHVLEAFQFCF
modifications: full-length
B7: P80318 (protein, UniProt P80318 1-545, looked up)
chain: MMGHRPVLVLSQNTKRESGRKVQSGNINAAKTIADIIRTCLGPKSMMKMLLDPMGGIVMTNDGNAILREIQVQHPAAKSMIEISRTQDEEVGDGTTSVIILAGEMLSVAEHFLEQQMHPTVVISAYRMALDDMISTLKKISTPVDVNNREMMLSIINSSITTKVISRWSSLACNIALDAVKTVQFEENGRKEIDIKKYARVEKIPGGIIEDSCVLRGVMINKDVTHPRMRRYIKNPRIVLLDSSLEYKKGESQTDIEITREEDFTRILQMEEEYIHQLCEDIIQLKPDVVITEKGISDLAQHYLMRANVTAIRRVRKTDNNRIARACGARIVSRPEELREDDVGTGAGLLEIKKIGDEYFTFITDCKDPKACTILLRGASKEILSEVERNLQDAMQVCRNVLLDPQLVPGGGASEMAVAHALTEKSKAMTGVEQWPYRAVAQALEVIPRTLIQNCGASTIRLLTSLRAKHTQESCETWGVNGETGTLVDMKELGIWEPLAVKLQTYKTAVETAVLLLRIDDIVSGHKKKGDDQNRQTGAPDAGQE
modifications: full-length
B8: P47738 (protein, UniProt P47738 1-519, looked up)
chain: MLRAALTTVRRGPRLSRLLSAAATSAVPAPNHQPEVFCNQIFINNEWHDAVSRKTFPTVNPSTGEVICQVAEGNKEDVDKAVKAARAAFQLGSPWRRMDASDRGRLLYRLADLIERDRTYLAALETLDNGKPYVISYLVDLDMVLKCLRYYAGWADKYHGKTIPIDGDFFSYTRHEPVGVCGQIIPWNFPLLMQAWKLGPALATGNVVVMKVAEQTPLTALYVANLIKEAGFPPGVVNIVPGFGPTAGAAIASHEGVDKVAFTGSTEVGHLIQVAAGSSNLKRVTLELGGKSPNIIMSDADMDWAVEQAHFALFFNQGQCCCAGSRTFVQENVYDEFVERSVARAKSRVVGNPFDSRTEQGPQVDETQFKKILGYIKSGQQEGAKLLCGGGAAADRGYFIQPTVFGDVKDGMTIAKEEIFGPVMQILKFKTIEEVVGRANDSKYGLAAAVFTKDLDKANYLSQALQAGTVWINCYDVFGAQSPFGGYKMSGSGRELGEYGLQAYTEVKTVTVKVPQKNS
modifications: full-length

The molecules below were run on CA19-9 modified proteins (assay: CA19-9 IP/MS (iTRAQ) of organoid conditioned media after Dox treatment). Conditions: CA19-9 IP/MS relative abundance; A217 (genetic negative) organoid conditioned media, 0H (before treatment), IP with NS19-9; reference channel = 1.
Set-up: species or system mouse

Molecule | 17 0H NS19
B1 | 1
B2 | 1
B3 | 1
B4 | 1
B5 | 1
B6 | 1
B7 | 1
B8 | 1

Same assay, conditions: CA19-9 IP/MS relative abundance; A217 (genetic negative) organoid conditioned media, after 8 hours, IP with 5B1

Molecule | 17 8H 5B1
B1 | 11.86
B2 | 2.747
B3 | 3.461
B4 | 2.198
B5 | 2.984
B6 | 3.794
B7 | 5.943
B8 | 2.783

Same assay, conditions: CA19-9 IP/MS relative abundance; A217 (genetic negative) organoid conditioned media, after 8 hours, IP with NS19-9

Molecule | 17 8H NS19
B1 | 0.86
B2 | 0.714
B3 | 0.798
B4 | 0.697
B5 | 0.472
B6 | 0.617
B7 | 0.584
B8 | 0.665

Same assay, conditions: CA19-9 IP/MS relative abundance; A220 (C;R^LSL;F) organoid conditioned media, 0H (before treatment), IP with 5B1

Molecule | 20 0H 5B1
B1 | 8.414
B2 | 2.313
B3 | 2.25
B4 | 1.942
B5 | 2.449
B6 | 3.294
B7 | 4.809
B8 | 2.399
